The source of these data is patent publication US12258425B2 (priority 2015, dated 2025).

Some results are limits rather than exact numbers.

The data set is described as follows: peptide made by a vendor (Fmoc solid-phase peptide synthesis; Fmoc-Amide-AMS resin; DIC/HOBt, NMM as base). The conditions noted are these: whole synthesis, HPLC (Venusil XBP-C18 4.6x250 mm).

For the substance “His-His-Ile-Tyr-Leu-Gly-Ala-Val-Asn-Tyr-Ile-Tyr-NHz”, the “final HPLC purity” value (HCl salt) is 97.0%. Moreover, the “final purity (method not given)” value (TFA salt) is recorded as above 95%. Also, under “TFA salt, converted to HCl salt”, the “crude purity (method not given)” value is 46%.
